Experimental findings from PubChem BioAssay AID1273 (Columbia University Molecular Screening Center, 2008) are described below.

This is one part of the list. Shown are side measurements of this screen, not its main read-out; they come without a call. Compounds called inactive in the main read-out are mostly missing here.

The test can be described thus: inhibitors of insulin promoter-driven GFP, primary screen, imaging, TRM-6 cells (human fetal islet line), eGFP reporter, cell count (AID 1273;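 also: cells exposed to compound for 48 h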). The conditions noted are these: measured here: cell count, toxicity, at 2 µM, reporter expression induced with tamoxifen.
Turning to `CCCNC(=O)Cn1nc(C(F)(F)F)c2c1CCC2`, the normalized cell count is 125%. Turning to `Cc1nc2cc(NC(=O)N(C)c3ccc4ccccc4c3)ccc2o1`, the normalized cell count was found to be 30.2%. With `Cc1cccc(OCc2n[nH]c(=S)n2C2CCCCC2)c1` the figure was 109%; with `O=C(CSC1=Nc2ccccc2C2CC=NN12)Nc1ccc2c(c1)OCO2` (configuration not stated), 67.4%; with `O=C(NCc1ccc2c(c1)OCO2)c1ccc(CN2CCOCC2)cc1`, 40.7%. With `CCOC(=O)N1CCC(N2CCN(S(=O)(=O)c3ccc(C)cc3)CC2)CC1` the figure was 62%; with `COC(=O)c1ccc(-c2cc(C(=O)O)c3cc4c(cc3n2)OCCO4)cc1`, 126%. With `CC(C)C(=O)c1cc2c(cc1NC(=O)c1ccccc1)OCCO2` the figure was 125%; with `O=C(CSc1nc2c(sc3ccccc32)c(=O)n1-c1ccccc1)NCc1ccco1`, 81.9%; with `O=C(NC(=S)Nc1ccc(S(=O)(=O)Nc2nccs2)cc1)c1cccc(F)c1`, 94.1%. `O=C(O)C1CC=CCC1C(=O)c1ccccc1` (configuration not stated) had a normalized cell count of 111%.

In turn, `Cc1ccc(/C(=N\O)c2oc3c(C)c4oc(=O)cc(C)c4cc3c2C)cc1` showed a normalized cell count of 121%. With `Nc1cc(C(=O)O)c(Oc2ccc(Cl)cc2Cl)cc1C(=O)O` the figure was 138%. The result for `Cc1ccc(C(c2nnnn2CS(=O)(=O)c2ccc(C)cc2)N2CCN(c3ncccn3)CC2)cc1` (configuration not stated) reads 94.2%. With `COc1cc(/C=N/NC(=O)c2ccncc2)ccc1OC(=O)c1ccc([N+](=O)[O-])cc1` the figure was 0.79%; with `Cc1nc(-c2ccc(NS(C)(=O)=O)cc2)cs1`, 46%. `O=C(O)CCC(=O)Nc1sc2c(c1C(=O)Nc1cccc3ccccc13)CCCCC2` registered a normalized cell count of 88.6%. The result for `CCCCN(C)C1=Nc2cccc3cccc1c23` reads 126%; that for `O=C(Nc1ccc(C(=O)O)cc1)/C(=C\c1ccc2c(c1)OCO2)NC(=O)c1ccccc1`, 93.1%. Turning to `Cc1noc(C)c1CSc1nnc(C)c(=O)[nH]1`, the normalized cell count worked out at 32.9%. With `Cc1nn(C)c(C)c1CNC(=O)/C=C/c1ccccc1F`, the normalized cell count was found to be 110%. With `Cc1nnc(SCC(=O)c2ccc(Cl)cc2)s1` the figure was 122%; with `COc1ccc(/C=N/OCC(=O)N=Nc2c(O)[nH]c3ccc(Br)cc23)cc1`, 109%. The result for `On1c(-c2ccc(Cl)cc2)nc2ccccc21` reads 172%. The molecule `COC(=O)c1cc(NC(=O)c2ccc(Cn3cc(Cl)cn3)o2)cc(C(=O)OC)c1` returned a normalized cell count of 51.6%. With `O=C(Nc1ccc([N+](=O)[O-])cn1)C1CC2CCC1C2` (configuration not stated) the figure was 120%. Take `O=C(NCc1ccco1)c1cc2ccc(O)cc2oc1=O`: the normalized cell count was determined as 52.5%. The result for `COc1ccc2ccccc2c1CN1CCN(Cc2ccccc2)CC1` reads 52.1%; that for `C=CCn1c(SCC(=O)N2CCN(c3ccccc3)CC2)nnc1-c1ccco1`, 77.4%. `Cc1ccc(CN2CCN(/N=C/C=C/c3ccccc3[N+](=O)[O-])CC2)cc1` returned a normalized cell count of 94.2%.

As for `CC(C)=C1SC(N2CCN(c3ccc(Cl)cc3)CC2)=NC1=O`, the normalized cell count was 108%. `O=C1CC(C(=O)Nc2ccc(C(=O)N3CCOCC3)cc2)C2(CCCCC2)O1` (configuration not stated): the normalized cell count came out at 105%. The molecule `O=C(Nn1cnnc1)c1cc2c(s1)CCCCC2` showed a normalized cell count of 110%. The result for `C/C(Cn1nc([N+](=O)[O-])cc1C)=N\NC(=O)c1ccc(C(C)(C)C)cc1` reads 92.2%; that for `CN(CC(=O)N1CCCCC1)S(=O)(=O)c1cccc2cccnc12`, 53.7%; that for `c1ccc2c(c1)[nH]c1c(N3CCSCC3)ncnc12`, 140%. With `N#Cc1c(-c2ccco2)nc(NCC2CCCO2)[nH]c1=O` (configuration not stated) the figure was 125%; with `Cc1ccccc1Nc1nc(CSc2nnnn2-c2ccccc2)cs1`, 64%.

With `Cc1cc(Oc2ccc(=O)n(C)n2)nc(Oc2ccc(=O)[nH]n2)n1`, the normalized cell count is 93.8%. In turn, `CCSc1cnc(-c2ccccc2)n1CC` showed a normalized cell count of 166%.

As to `CCOC(=O)N1CCN(C(=O)C2c3cc(OC)c(OC)cc3C(=O)N3CCc4ccccc4C23)CC1` (configuration not stated), the normalized cell count was found to be 130%. The result for `Cc1nc(NC(=O)c2ccccc2)sc1-c1csc(NCCc2ccccc2)n1` reads 124%; that for `CCOC(=O)c1c(/N=C/N(C)C)sc(C(=O)OC)c1C`, 107%.

Consider `Cc1cc(C)n(C(=O)c2ccc(NC(=O)CC(C)C)cc2)n1`, for which the normalized cell count turned out to be 38.4%. The result for `Cc1ccc(-c2c3c([nH]c(=S)c2C#N)CCCC3)o1` reads 143%; that for `O=c1[nH]n2c(C(F)(F)F)cc(C3CC3)nc2c1N=Nc1ccccc1`, 79.7%; that for `O=C(COc1ccccc1)N1c2ccccc2Sc2ccccc21`, 109%. The result for `O=C(Cn1cnc2c(oc3ccccc32)c1=O)NCc1ccco1` reads 69.5%; that for `COc1cc(OC)cc(C(=O)OCc2cc3ccccc3[nH]c2=O)c1`, 71.2%. Regarding `c1ccc(-c2csc3ncnc(NCCN4CCOCC4)c23)cc1`, the normalized cell count came to 87.2%. With `CC(C)CCNC(=O)c1c[nH]c2ccc(S(=O)(=O)N3CCC4(CC3)OCCO4)cc2c1=O` the figure was 95.9%; with `Cc1ccc2[nH]c3c(=O)n(N)c(C)nc3c2c1`, 178%; with `Nc1cccnc1Sc1cc(Cl)cc(Cl)c1`, 136%. The result for `Cc1cccc(NC(=O)c2ccccc2NC(=O)CCC(=O)O)c1` reads 52.1%. With `Cc1nc2sc(C(=O)OC(C)C)c(N)c2c(C)c1C` the figure was 176%; with `COc1ccc(-c2cn3ccc4ccccc4c3n2)cc1`, 72.8%; with `COc1ccc(N(C)S(=O)(=O)c2cccc(C(=O)Nc3nc4ccccc4[nH]3)c2)cc1`, 86.6%. The molecule `Cc1cc(C)n2c(SCc3c(C)noc3C)nnc2n1` gave a normalized cell count of 53.9%.

Regarding `CC1(C)Cc2c(sc3nc[nH]c(=O)c23)CO1`, the normalized cell count is 63.1%. With `NC(=O)c1ccccc1N/C=C/C(=O)c1ccc(Cl)cc1Cl` the figure was 86.7%; with `Nc1c(-c2cccc([N+](=O)[O-])c2)nc2ccccn12`, 137%; with `Cc1cccc(N2CCc3c2nc2ccc(Br)cc2c3N)c1`, 121%. With `COc1ccc2[nH]c3c(NCCC4=CCCCC4)ncnc3c2c1` the figure was 133%; with `O=C(O)Cn1cc(C(=O)c2cccs2)c2ccccc21`, 131%; with `COc1ccc(-c2nnn(CCc3nn[nH]n3)n2)cc1`, 111%.

The molecule `Cc1cc(C(=O)Oc2cccnc2)ccc1[N+](=O)[O-]` showed a normalized cell count of 113%. The result for `CCOc1ccccc1C(=O)Nc1nnc(CC)s1` reads 99.7%. Take `CCC(=O)Nc1ccc2nc(C)n(CC(=O)Nc3ccccc3)c(=O)c2c1`: the normalized cell count came out at 117%. With `Cc1nn2c(nc1=O)SCC(c1ccccc1)=N2` the figure was 98.6%; with `CC(=O)Nc1ccc(Nc2cc(C)nc3c(-c4ccccc4)cnn23)cc1`, 201%. The result for `O=C(NCCc1ccccc1)C(c1cccs1)N(C(=O)CCl)c1ccc(Cl)cc1` (configuration not stated) reads 0%; that for `CCc1nnc2c3cnn(-c4ccccc4)c3ncn12`, 66.1%. The result for `Cc1snc(S(=O)(=O)/C(C#N)=N/Nc2cccc(C(F)(F)F)c2)c1C#N` reads 43.3%. In the case of `c1ccc2c(c1)Sc1ccccc1-n1cnnc1-2`, the normalized cell count is 137%. With `NC(=O)COC(=O)CCCc1c[nH]c2ccccc12` the figure was 142%. Regarding `CC1CCN(Cc2nc3c(c(=O)n(C)c(=O)n3C)n2Cc2c(F)cccc2Cl)CC1`, the normalized cell count was 87.4%. With `Cc1ccc(-c2csc(C(C#N)=C3CCCC3)n2)cc1` the figure was 47.1%; with `CCOCCCn1c(C)nc2c(c1=O)c1nc3ccccc3nc1n2-c1ccc(C)cc1`, 189%; with `c1cc2c3c(cccc3c1)C(N1CCCCC1)=N2`, 75.8%. As to `Cc1ccc(NC(=O)C2CCCN(S(=O)(=O)c3ccc4c(c3)oc(=O)n4C)C2)nc1` (configuration not stated), the normalized cell count was found to be 20.9%. For `CCCNc1nc(N2CCCC2)nc(N2CCCC2)n1`, the normalized cell count stood at 108%. With `Cn1c(NCc2cccc(Br)c2)nc2ccccc21` the figure was 134%; with `CCOC(=O)c1c(C)cc(C)n2c1nc1ccccc12`, 322%; with `Cc1ccc(-n2sc3ccccc3c2=O)cc1S(=O)(=O)N1CCCCC1`, 36.9%. The result for `CC(=O)CCc1c(C)c2cc(C)ccc2[nH]c1=O` reads 25.4%; that for `CC1CN(Cc2nc3c(c(=O)n(C)c(=O)n3C)n2CCc2ccccc2)CC(C)O1` (configuration not stated), 16.9%.

`CCOC(=O)c1c2n(c3ccc(O)cc13)CCCCC2` yielded a normalized cell count of 145%.

In turn, `C/C(=N\N1CCN(C)CC1)c1ccc(OC(F)F)cc1` returned a normalized cell count of 86.4%. The result for `CCOC(=O)N1CCN(C(=S)NC)CC1` reads 33.3%.

In turn, `O=C(C1CN(S(=O)(=O)c2ccccc2)CCN1S(=O)(=O)c1ccccc1)N1CCCCCC1` (configuration not stated) had a normalized cell count of 41.3%. With `Cc1ccc(S(=O)(=O)NNC(=O)c2cnn(-c3ccccc3)c2-n2cccc2)cc1` the figure was 85.9%; with `Cc1ccc2c(C)nc(/N=C(\N)NC(=O)N3c4ccccc4Sc4ccccc43)nc2c1`, 120%; with `CC(NC(=O)C1CCCC1)C1CC2CCC1C2` (configuration not stated), 110%.

The molecule `COc1ccc(CC(=O)NNC(=O)CSc2nnc(Cc3ccc(OC)cc3)n2-c2ccccc2)cc1` had a normalized cell count of 83.1%. The molecule `Nc1ccc2nc(SCc3cccc(F)c3)sc2c1` had a normalized cell count of 147%. The result for `Cc1cccc(N2CCN(C(=O)C(C)C)CC2)c1C` reads 142%; that for `Cc1ccc(NCc2cccnc2)c(Br)c1`, 63.9%; that for `Cc1ccc(/C=C/C(=O)Nc2cc(C)on2)cc1`, 71.4%. The result for `CCCCc1nc2ccccc2[nH]1` reads 143%; that for `COc1ccc2c(CCNC(=O)c3ccco3)c[nH]c2c1`, 74.9%.

`Fc1ccccc1CSc1nc2ccccc2[nH]1` displayed a normalized cell count of 129%. With `COc1ccccc1NC(=O)Nc1c(C)n(C)n(-c2ccccc2)c1=O` the figure was 17.3%; with `O=C(O)C12CC3CC(C1)CC(n1cnc(Cl)n1)(C3)C2`, 2.04%. With `Cc1c(Cl)c(C(F)(F)F)nn1CC(=O)N1CCSCC1` the figure was 4.55%; with `COc1ccc(C(=O)Nc2ccc3c4c(cccc24)CC3)cc1`, 0.94%; with `Cc1ccccc1NC(=O)CSc1nnc(Cc2ccccc2)o1`, 166%. The result for `O=c1c(-n2cncn2)c[nH]n1-c1cccc(Cl)n1` reads 44.4%; that for `Cc1cc(C(=O)CCl)c(C)n1-c1ccon1`, 103%; that for `COc1ccc(N2CC(C(=O)NCCC3=CCCCC3)CC2=O)cc1` (configuration not stated), 82.5%. On to `COc1ccccc1NC(=O)/C=C\C(=O)O`, for which the normalized cell count came to 38.1%. The result for `CNS(=O)(=O)c1cccc(C(=O)NCC(c2cccs2)N(C)C)c1` (configuration not stated) reads 98.4%. With `CCOC(=O)c1c(NC(C)=O)sc2c(O)c(CN3CCN(CC)CC3)ccc12` the figure was 89.4%. `Cc1ccc(/C=c2\sc3nc(-c4ccco4)nn3c2=O)o1` registered a normalized cell count of 104%. With `Cc1ccc(C(=O)OC(C)CN2CCOCC2)cc1` (configuration not stated) the figure was 128%; with `FC(F)(F)c1ccc2c(c1)nc1n2CCCC1`, 131%; with `CCCCCCN=CC1=C(O)C(C(=O)OC)C(C)(C)CC1=O` (configuration not stated), 62.7%. With `C=CCc1c(C)nc(SC(C)C)[nH]c1=O` the figure was 31%.
